Measurements taken from PubChem BioAssay AID2685 (National Center for Advancing Translational Sciences (NCATS), 2010).
This is one part of the list. The main result of the screen is listed elsewhere. These columns were measured beside it and carry no call. Compounds called inactive in the main read-out are mostly missing here. Potencies come from curve fits of mixed quality, noted in brackets.

Assay: qHTS Assay for Lipid Storage Modulators in Drosophila S3 Cells;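 on cell number change: cells counted by Cell Tracker Red CMTPX staining in the red channel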
Conditions: BODIPY lipid droplet fluorescence, 18-24 h; for cell number change: measured here: cell count max response, cells fed with added oleic acid
Procedure, shortened: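 Drosophila S3 cells loaded with oleic acid (400 uM, as added) and compounds at several concentrations; lipid droplets imaged by 488-nm laser-scanning cytometry, 500–530 nm intensity and object ratio to cell channel. Percent activity normalized to 20 uM Triacsin C.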

[1] = measured here: cell number channel AC50, cells fed with added oleic acid
[2] = measured here: lipid fluorescence (Fed channel) AC50, cells fed with added oleic acid

Row | Compound | cell number change [%] | AC50 [1] | AC50 [2]
1 | COc1ccc(-c2c(C#N)c(SCC(N)=O)nc3c2CCCC3)cc1 | 22.6 | 7.31 µM [rising, partial curve, poor fit] | 3.66 µM [rising, full curve, poor fit]
2 | CCOc1ccc(OCc2ccc(C(=O)N3N=C(C(F)F)CC3(O)C(F)F)o2)cc1 (centres undefined) | -50.4 | – | 0.13 µM [falling, full curve, poor fit]
3 | CCOC(=O)N1CCC(NC(=O)CN2C(=O)CSc3nc(C)cc(C)c32)CC1 | 15.5 | – | 0.82 µM [rising, full curve, poor fit]
4 | Cc1ccc(S(=O)(=O)CCC(=O)OCC(=O)c2c(N)n(CC(C)C)c(=O)n(C)c2=O)cc1 | -13.5 | – | –
5 | CCOc1cc(N2CCOCC2)c(OCC)cc1NC(=O)CSc1ncn[nH]1 | 25.6 | – | 23.1 µM [rising, single point]
6 | Cc1ccc(Cl)cc1N1CCN(C(=O)CN2C(=O)c3cccc4cccc2c34)CC1 | – | 2.59 µM [rising, partial curve] | 4.11 µM [rising, partial curve]
7 | Cc1ccc(-n2nc(-c3ccc(OC(F)(F)F)cc3)cc2N)cc1C | 11.6 | – | –
8 | CCOC(=O)c1cn(Cc2cccc(Cl)c2)nn1 | 0.115 | – | 9.2 µM [rising, partial curve]
9 | Cc1cc(Cl)ccc1OC(C)c1nnc(N)s1 (centres undefined) | – | 0.651 µM [rising, single point] | 0.651 µM [rising, single point]
10 | CC(C)=C1SC(N2CCN(c3ccc(Cl)cc3)CC2)=NC1=O | 18.6 | 1.84 µM [rising, partial curve, poor fit] | 1.84 µM [rising, partial curve, poor fit]
11 | NS(=O)(=O)c1ccc(CNC(=O)c2cc(-c3cccnc3)nc3ccc(Br)cc23)cc1 | -56.2 | 28.2 µM [falling, single point] | –
12 | COCC(=O)N1CCC(Oc2ccc(C(=O)N3C[C@H]4CC[C@H]3C4)cc2)CC1 | -26.7 | – | –
13 | O=C(C[n+]1cc(-c2ccc(F)cc2)n2c1CCC2)OCc1ccccc1 | 14.9 | – | 2.91 µM [falling, full curve]
14 | CCCN1C(=O)/C(=C2\SC(N3CCCCC3)=NC2=O)c2ccccc21 | -94.4 | 20.6 µM [falling, partial curve] | –
15 | Cc1cc(C)c(S(=O)(=O)ON2C(=O)c3ccccc3C2=O)cc1C | -28.3 | – | 9.2 µM [falling, partial curve]
16 | CN(C)c1nc(OCCNC(=O)COc2ccc(Cl)cc2Cl)nc(N2CCOCC2)n1 | -14.5 | – | 16.4 µM [rising, single point]
17 | O=C(NCc1ccco1)c1cc2n(n1)C(C(F)(F)F)CC(c1ccc(Br)cc1)N2 (centres undefined) | -44.9 | 2.06 µM [falling, partial curve, poor fit] | –
18 | Cc1c(/C=C2\SC(=Nc3cccc(C(=O)O)c3)NC2=O)c2ccccc2n1C | -3.8 | – | 29.1 µM [rising, single point]
19 | COc1ccc2cc(S(=O)(=O)Nc3ccccn3)ccc2c1 | 8.55 | – | –
20 | COc1ccc(CN(C(=O)c2cnccn2)C(C(=O)Nc2ccc(F)cc2)c2ccccc2)cc1 (centres undefined) | -21.4 | – | 14.6 µM [falling, single point]
21 | CCN(CC)C(=O)CN1C(=O)C2(OCC(C)(c3ccccc3)CO2)c2ccccc21 (centres undefined) | -3.17 | – | –
22 | Cc1cc(=O)n2nc(N3CCCC(C(=O)N4CCOCC4)C3)sc2n1 (centres undefined) | 2.75 | – | –

Row | Compound | cell number change [%] | AC50 [1] | AC50 [2]
23 | COc1ccc([C@H]2CC(=O)C=C(c3ccc(OC)c(F)c3)C2)cc1 | – | – | 1.16 µM [falling, full curve]
24 | FC(F)(F)c1ccccc1CNCc1ccncc1 | -8.39 | – | –
25 | Cc1ccc(C)c(NC(=O)COC(=O)CSc2ccccc2)c1 | -3.3 | – | 0.517 µM [rising, single point]
26 | CN(C)CCCCCNCCCNC(=O)/C=N\O | -7.5 | – | 0.058 µM [falling, full curve]
27 | COc1ccc(Nc2nc(C)c3ccccc3n2)cc1 | -3.97 | – | 6.51 µM [rising, single point]
28 | O=C(O)COCC(=O)N1CCN(C(c2ccccc2)c2ccccc2)CC1 | -21.3 | – | –
29 | CC(C)(C)C(=O)OCc1cn(-c2ccc(Cl)cc2)nn1 | 79 | 29.1 µM [rising, single point] | –
30 | COc1ccc(N(C(=O)COc2ccccc2)C2C=CS(=O)(=O)C2)cc1 (centres undefined) | – | 0.00461 µM [falling, full curve, poor fit] | 0.00461 µM [falling, full curve, poor fit]
31 | COc1ccccc1NS(=O)(=O)c1cc(NC(=O)CNC(=O)c2ccccc2)ccc1C | -50 | 32.6 µM [falling, single point] | 1.84 µM [rising, full curve]
32 | CCN(CC)S(=O)(=O)c1ccc(OC)c(NC(=O)CSc2cc(C)ccc2C)c1 | 29.8 | – | 2.31 µM [rising, partial curve]
33 | CCOC(=O)c1ccccc1NC(=O)c1cn(-c2ccc(OC)cc2)c(=O)c2ccccc12 | 10 | – | 0.146 µM [rising, full curve, poor fit]
34 | N/C(=N\OC(=O)c1ccc2c(c1)OCO2)c1ccncc1 | 32.5 | 4.11 µM [rising, partial curve, poor fit] | 2.31 µM [rising, partial curve, poor fit]
35 | Cc1c(N=Cc2nc3ccccc3[nH]2)c(=O)n(-c2ccccc2)n1C | -11.7 | – | –
36 | O=C(NCc1ccccc1Cl)C(=O)c1c[nH]c2ccccc12 | 9.24 | 1.84 µM [falling, partial curve] | –
37 | O=C(COc1ccc(F)cc1)NNC(=O)c1cc2ccccc2oc1=O | 7.89 | – | 1.84 µM [rising, partial curve, poor fit]
38 | O=C(CNc1ccc(F)cc1)N/N=C1\CCc2ccccc21 | 140 | – | –
39 | O=C(COC(=O)c1cn(-c2ccccc2)nc1-c1ccccc1)c1ccc([N+](=O)[O-])cc1 | 1.32 | – | 1.84 µM [rising, partial curve, poor fit]
40 | CCS(=O)(=O)N1CCN(c2ccc(C(=O)NC3C4CC5CC(C4)CC3C5)cc2[N+](=O)[O-])CC1 (centres undefined) | -32.1 | 20.6 µM [falling, single point] | 20.6 µM [falling, single point]
41 | COc1ccc(NC(=O)CCCCCN2C(=O)c3cccc([N+](=O)[O-])c3C2=O)c(OC)c1 | -13.2 | – | –
42 | Cc1ccc(NC(=O)CSc2sc3c(O)cc(=O)[nH]c3c2C#N)cc1C | 0.87 | – | –
43 | COc1cccc(-c2nnc(SCC(=O)Nc3cc(C)ccc3OC)n2N)c1 | -18.7 | – | 0.82 µM [rising, full curve, poor fit]
44 | Nc1cc(-c2nn[nH]n2)ccc1F | -6.69 | – | –

Row | Compound | cell number change [%] | AC50 [1] | AC50 [2]
45 | CC(C)(C)c1nc(NCCO)c2nnn(Cc3ccccc3)c2n1 | -31 | 16.4 µM [falling, single point] | 1.64 µM [falling, partial curve]
46 | Cn1c(=O)c2c(SCC(=O)Nc3ccccc3F)nc(-c3ccccc3F)nc2n(C)c1=O | -16 | – | 0.92 µM [falling, full curve]
47 | Nc1nnnn1CC(=O)OCc1cccc(Br)c1 | – | – | 9.2 µM [falling, partial curve]
48 | O=C(/C=C/c1cc2c(cc1Br)OCO2)NCc1ccc(Cl)cc1 | -93.2 | – | –
49 | COc1ccc(CCNC(=O)c2noc3c2CCCC3)cc1OC | -5.48 | – | 25.9 µM [rising, single point]
50 | COc1ccc(S(=O)(=O)NNC(=O)Cc2csc(C)n2)cc1[N+](=O)[O-] | – | – | 0.82 µM [rising, partial curve]
51 | CC(C)n1c(O)c(N=NC(=O)CNC(=O)Cc2ccc(Cl)cc2)c2ccccc21 | 14.5 | – | –
52 | O=C(c1ccc(OC2CCN(Cc3ccccc3C(F)(F)F)CC2)cc1)N1CCCCC1 | -3.76 | – | 0.00517 µM [falling, full curve, poor fit]
53 | O=C(NC1CCCCC1)C(c1ccc(F)cc1)N(Cc1ccccc1)C(=O)CN1C(=O)c2ccccc2S1(=O)=O (centres undefined) | -1.11 | – | –
54 | CCOC(=O)c1ccc(Oc2nc(N(C)C)nc(N3CCOCC3)n2)cc1 | 23.1 | – | 6.51 µM [rising, single point]
55 | CCN(CC(=O)Nc1c(F)cccc1F)C(=O)CSc1nc(C)cc(C)n1 | 19.2 | 0.291 µM [rising, full curve, poor fit] | –
56 | COc1ccc(N2C(=O)c3ccccc3NC23CCCC3)cc1 | 8.01 | – | –
57 | Cc1cccc(CSc2nnc(-c3ccccn3)n2N)c1 | 0.256 | – | 2.91 µM [falling, single point]
58 | CCOC(=O)N1CCC(N2CCN(c3ccccc3)CC2)CC1 | 30.7 | – | –
59 | CC(=O)c1cccc(NC(=O)Nc2cccs2)c1 | 4.38 | – | 23.1 µM [rising, single point]
60 | CC(C)CC(=O)NCCCCc1ccccc1 | -6.31 | 0.517 µM [falling, full curve, poor fit] | 1.3 µM [falling, partial curve]
61 | O=C1CCC2S/C(=C/Nc3ccc(C(F)(F)F)cc3)C(=O)N12 (centres undefined) | 8.82 | 1.64 µM [falling, partial curve] | –
62 | C=C[C@@H]1c2ccccc2N(S(=O)(=O)c2ccc(C)cc2)[C@H](c2ccc(C(F)(F)F)cc2)C1(C#N)C#N | -1.47 | – | 2.06 µM [falling, partial curve]
63 | CC(C(=O)Nc1ccc(C#N)cc1)N1CCN(C(=O)C2CC2)CC1 (centres undefined) | -20.6 | – | –
64 | Cc1cc(C)c2nc(C(F)(F)F)nc(NCCCN3CCCC3=O)c2c1 | 154 | 1.84 µM [rising, full curve] | 1.84 µM [rising, full curve]

A draw from above in order of heavy-atom count, ascending:
Row | Compound | cell number change [%] | AC50 [1] | AC50 [2]
64 | Cc1cc(C)c2nc(C(F)(F)F)nc(NCCCN3CCCC3=O)c2c1 | 154 | 1.84 µM [rising, full curve] | 1.84 µM [rising, full curve]
54 | CCOC(=O)c1ccc(Oc2nc(N(C)C)nc(N3CCOCC3)n2)cc1 | 23.1 | – | 6.51 µM [rising, single point]
52 | O=C(c1ccc(OC2CCN(Cc3ccccc3C(F)(F)F)CC2)cc1)N1CCCCC1 | -3.76 | – | 0.00517 µM [falling, full curve, poor fit]
62 | C=C[C@@H]1c2ccccc2N(S(=O)(=O)c2ccc(C)cc2)[C@H](c2ccc(C(F)(F)F)cc2)C1(C#N)C#N | -1.47 | – | 2.06 µM [falling, partial curve]
